Paper PMC12370185
This is one part of the list. For part of these data: At the low end of the ranking the order means little.

Legend:
Settings in all cases: 10 mM Tris-Cl pH 7.5, 50 mM NaCl, 1 mM DTT, 0.25 mg/ml BSA, 2 mM MgCl2, 0.025% Nonidet P-40, 5% glycerol; 28 nM nucleosome library; 10 min on ice then 30 min …; high values mean tight binding; double strand, one strand shown
KLF4 + histone octamer = test: EMSA with sequencing
OCT4 + histone octamer [1] = test: EMSA with sequencing
[2] = test system: c-MYC + MAX + histone octamer; test: EMSA with sequencing
SOX2 + histone octamer [3] = test: Pioneer-seq (competitive nucleosome EMSA with sequencing)
SOX2 + histone octamer [4] = test: EMSA with sequencing
[5] = test system: c-MYC + MAX + histone octamer; test: Pioneer-seq (competitive nucleosome EMSA with sequencing)
OCT4 + histone octamer [6] = test: as above

Sequence | binding signal (log2 relative supershift) (KLF4 + histone octamer) | binding signal (log2 relative supershift) (OCT4 + histone octamer [1]) | binding signal (log2 relative supershift) [2] | binding signal (log2 relative supershift) (SOX2 + histone octamer [3]) | binding signal (log2 relative supershift) (SOX2 + histone octamer [4]) | binding signal (log2 relative supershift) [5] | binding signal (log2 relative supershift) (OCT4 + histone octamer [6])
GATGGACCCTATACGCGGCCATTTTGCAGTTAAATATGTTTTACCATCTACCACAGGCAATCATCTTCAATAAAAAGCAATGGTTATGCACATGGGAGGGGCTTCAGGGCTCCCACCCGAAAGGCATTAGCTACCAAGGATGTGGGGTGTTTGTGGTGTGTGTGTAGGGGTGGAGGGATAGAAACGTCTGGAGGCACGGGGGTGGAGGGGTGCCAGTCGGATAGTGTTCC | 2.32 | 0.651 | 0.372 | -0.668 | – | – | –
GATGGACCCTATACGCGGCTGAGCCTGCAGACAATGCAAGTCATTCAGGTCGCTCTTTTTTTCTGGGAAGAGCTTGCTATCAGCTAGGTGACAGGGTGGTCAGGACACATGTCTTTCATTCTCCAGCAGGCTAGCCCGGTCATGTTCACATGGTGGTGGCACCTGTTCGAGAGGGTTAAAAGGCCATTTCTAGGCATTAAATATTCAAGTTGCCAGTCGGATAGTGTTCC | 0.516 | 0.295 | – | – | 1.74 | -0.145 | –
GATGGACCCTATACGCGGCTTTCTGCTTGTGTAACTGAATGATTCTCCTGAATTTACAGCTTCTACCCCTCTATCAGTCATTGTGACAGCACTTCACGGCAATACAACAAGAGAGATTGAAGACAAAGACAACTGATCTGCCCACCAGTCAGATGTGATTACAGCTCTGCACATCAATGTTTAGATTATAAGGCAGTGTATACCATCTTTTGCCAGTCGGATAGTGTTCC | 1.12 | 0.469 | 0.577 | – | 1.11 | – | –
GATGGACCCTATACGCGGCAACATACATATGCATGCATATGCACAGTCACAGGTGCACGTGCAAGACCCGATGCGCATACATGCACACGTGCACAAACAGGCACACACACGCACGTGCACACACCCACCCACACATGTATGCACATACAAGCACAAACACGTGCATGCCCACACACACATGCACACACACGTACACACACACACGCGCACTGCCAGTCGGATAGTGTTCC | 0.138 | 0.477 | 1.47 | -0.149 | – | – | –
GATGGACCCTATACGCGGCATGATTCTCGCCATCAGCAGGGAGAAGGAGCGCCTCCCCATGTGGGACCTGGAGAAACAGAGGGTGGAGGGAGCATAGAGAGTCTGTTCTAAGCTGCAAAGCAAAGGCCTGGCGACCTAGGAGACCATGGAGTTCCAGAAAGTGATAGTTATGCAGAGCGAATGGAGGGAATCAGCACGCAGCGACTTTACTGCCAGTCGGATAGTGTTCC | 1.14 | 0.228 | 0.602 | -0.408 | – | – | –
GATGGACCCTATACGCGGCACTCCTCCATAATTTCTGCTGCATCCCTCCCTCTCTAGCCACCTACTGCTTATCAAGCCAGAACATGTCTGAGGTCTAGCAGATCTGCCCAGTCATGATAGCTAAGGGCTGGGAGTTCCTGATCCCAGCTTCCTGGATATTACTGGAGCAGATCTGCCCTAGAGGCAAGGAGAAATATTGGATGATCTGCATGCCAGTCGGATAGTGTTCC | 1.67 | 0.0615 | 0.0853 | -0.631 | – | – | –
GATGGACCCTATACGCGGCGTTTCTTCGCCCCACTTTATAACAACATCAGTCACATTCACATACAAAGGATGTGGAACAGAAAAGACCCAAAGAGCTTTGCAAATGCTCCTGGAGGGCACTGGCAGGCACTGGTTGAGCAAGTTCTCTAATGGTGTGTCAGTGGTGAGGTACAGTTCAACAAAGAGTTTTCAGAGGCTTTAATTATATTATGCCAGTCGGATAGTGTTCC | 1.61 | 0.136 | – | – | 1.38 | -0.0916 | –
GATGGACCCTATACGCGGCTAATTTAGGGCATCACTTTTCCTGATATTGGCATGCTAAATATTACTTCATACTCAGTTTGGTTCCACAAGTAAGCACACACTGTATATAAAGAACTGCTTGGCTTGTATGAGTCACAGGGTCTCTGCATCCCTGCCTTTGAGAAGCTTACACTGCAGTAGGGAAGGTAAACAATTTGCTGTGTGTAAAGCTGCCAGTCGGATAGTGTTCC | 1.12 | 0.0369 | – | – | 0.274 | -0.0941 | –
GATGGACCCTATACGCGGCGTTTAGAAGCCATATCAGATGAAAGATACGGGGCCTTTTTTATGCATAATGTAATGCACTCCAGTACGTGGCCATCACACCCCGTCTAATGGCTGCTGAGAGGCCTTTTTACCATGGCTGCCCTCTTATCTTCCAGCCTGTTCTTTATATACATCATTGTCAGCCAAATTCTGGAGGGGTGAAGGGTTGTTTGCCAGTCGGATAGTGTTCC | 0.765 | 0.854 | – | – | 0.844 | -0.237 | –
GATGGACCCTATACGCGGCTTCACCCTCCTGTCCCTCCGGACCTGCAATTCTTCACACCCTCTGCAGCGCACAGGGTGCTCAGGACACATGTGCACGGTGGGGGCTGGCGATGCTTCCTCGCCCCCACCACCCGCAAGCTTGCAGAGAGCTGTAGTGCCCAGGATGTATGCCAGGATAGGAATTCCACGGTTCCAGGCATGCCAAGAAAATGCCAGTCGGATAGTGTTCC | 2.48 | 0.426 | 0.612 | -0.201 | – | – | –
GATGGACCCTATACGCGGCACACACATATTGATACAGGCACACATGCATATTCAAACAGGCACACACAGGTGTATTCACAAAGGCACACATATGCACATACATTCACAGACAGGCACACACATTCACACAGGCATACACATGCAGACACACATTCACATATGCACACACAGGCACACACACGCATATGCACACAGACACACATATTCATATGCCAGTCGGATAGTGTTCC | 0.678 | 0.795 | – | -1.67 | – | – | –
GATGGACCCTATACGCGGCGTTTCAGAAAGTGTATTTTCTATGAAACTCTGCAACTATTAGGATGTGATTGTTCATGGGCACAGACAGGAAATACGTGTTTAACAATGTCCTCAATAGCCCCAGCTCCAAGAAGGGGTCCCACCTATGGTGGCTGGTTGGCAGATAGTTATTGAAATTCAAAGTGCATGACTAGCATTTCTTGAGAAACTTGCCAGTCGGATAGTGTTCC | 0.232 | 0.249 | – | – | 0.571 | -0.418 | –
GATGGACCCTATACGCGGCAGAAAAGAATTTTTAAAAGCTGTTACGAGGTGGGGAAAAGCCAGTTGCAGAACAATACATACAGTATGATTCTAATTATGTGAAAAGAAACCACCCACGCTCTAAGGGGTGTGCACATGAATGATATGAGTCAGAGGATGTGTGAAAAGAGGTTGACAGTGTCTGCTCTATAAGCTTTGATTTTTAAGAATTGCCAGTCGGATAGTGTTCC | 1.33 | 0.0689 | – | – | 0.844 | -0.205 | –
GATGGACCCTATACGCGGCAAAATGCAGTCTGGCTTTGTTCATGAGGCTAAAGCATCTAAGCCAGTGTAGGGAAGCAATAGCAACAACAACAACAATCAATCAAACCAATTGCCTGGCATTCTATTGATATGGCAATCAGCTGATTGACTGAATGTTCTGCTCTTAACTTGTTGCCATAGTGCTACTACTACACCTGCTGAATGCTGCAATGCCAGTCGGATAGTGTTCC | 0.886 | – | 0.648 | – | 0.978 | – | -0.0187
GATGGACCCTATACGCGGCTCTCAAACCTATCCCATGTCCAACTTTCCTGGATTGCTGCCACCACCTTGGGAACAGATTCTCCATGTCCAGGCTTGTCTCCCTCTGATCCATCCTCCACCCAGTTGCTAGAATAGTCTGACGACTCCACCCCCTGCTTGAAACCCGAACCCTCTGCATGCCTTATGAGAAATGTTGTCTCTGCCTCTCCCTGCCAGTCGGATAGTGTTCC | 2.18 | 0.826 | 0.146 | -0.781 | – | – | –
GATGGACCCTATACGCGGCAGCTGAACTCATATCAGAGACAGGCTCAGCCACAAGAGACATGGAAGAATAGCCAAGAGTCTAAAATATGATTTCAACACATGATAAAGCAAGGCTGTTTCAACAGCATGGGAGGTGTACTTCTTTGAACAGCGAGCCCTGGCTTTCCATATCACAGTACCTGGCAAAGCTTTGTTTTCTTTTCAGTAATCTGCCAGTCGGATAGTGTTCC | 0.299 | – | 0.143 | – | 1.73 | – | -0.322

2 neighbouring entries already listed, for reference:
Sequence | binding signal (log2 relative supershift) (KLF4 + histone octamer) | binding signal (log2 relative supershift) (OCT4 + histone octamer [1]) | binding signal (log2 relative supershift) [2] | binding signal (log2 relative supershift) (SOX2 + histone octamer [3]) | binding signal (log2 relative supershift) (SOX2 + histone octamer [4]) | binding signal (log2 relative supershift) [5] | binding signal (log2 relative supershift) (OCT4 + histone octamer [6])
GATGGACCCTATACGCGGCACACACATATTGATACAGGCACACATGCATATTCAAACAGGCACACACAGGTGTATTCACAAAGGCACACATATGCACATACATTCACAGACAGGCACACACATTCACACAGGCATACACATGCAGACACACATTCACATATGCACACACAGGCACACACACGCATATGCACACAGACACACATATTCATATGCCAGTCGGATAGTGTTCC | 0.678 | 0.795 | – | -1.67 | – | – | –
GATGGACCCTATACGCGGCGTTTCAGAAAGTGTATTTTCTATGAAACTCTGCAACTATTAGGATGTGATTGTTCATGGGCACAGACAGGAAATACGTGTTTAACAATGTCCTCAATAGCCCCAGCTCCAAGAAGGGGTCCCACCTATGGTGGCTGGTTGGCAGATAGTTATTGAAATTCAAAGTGCATGACTAGCATTTCTTGAGAAACTTGCCAGTCGGATAGTGTTCC | 0.232 | 0.249 | – | – | 0.571 | -0.418 | –
